The source of these data is the supplement of paper PMC10849652.

Amino acid sequences for entries named in this document (tags omitted). A change or cut given only in a name is not applied to a line headed by its entry.
UniProt P16989, whole entry, looked up: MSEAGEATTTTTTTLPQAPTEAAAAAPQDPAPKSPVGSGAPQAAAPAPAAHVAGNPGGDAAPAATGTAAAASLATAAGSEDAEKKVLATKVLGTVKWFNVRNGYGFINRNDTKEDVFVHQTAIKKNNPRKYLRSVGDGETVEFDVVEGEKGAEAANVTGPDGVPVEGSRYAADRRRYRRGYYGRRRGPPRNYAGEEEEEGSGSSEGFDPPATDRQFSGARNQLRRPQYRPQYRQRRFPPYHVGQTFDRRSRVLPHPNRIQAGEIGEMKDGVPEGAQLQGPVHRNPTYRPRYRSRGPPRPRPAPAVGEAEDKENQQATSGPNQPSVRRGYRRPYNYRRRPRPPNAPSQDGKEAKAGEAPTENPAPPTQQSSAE
UniProt Q96QU8: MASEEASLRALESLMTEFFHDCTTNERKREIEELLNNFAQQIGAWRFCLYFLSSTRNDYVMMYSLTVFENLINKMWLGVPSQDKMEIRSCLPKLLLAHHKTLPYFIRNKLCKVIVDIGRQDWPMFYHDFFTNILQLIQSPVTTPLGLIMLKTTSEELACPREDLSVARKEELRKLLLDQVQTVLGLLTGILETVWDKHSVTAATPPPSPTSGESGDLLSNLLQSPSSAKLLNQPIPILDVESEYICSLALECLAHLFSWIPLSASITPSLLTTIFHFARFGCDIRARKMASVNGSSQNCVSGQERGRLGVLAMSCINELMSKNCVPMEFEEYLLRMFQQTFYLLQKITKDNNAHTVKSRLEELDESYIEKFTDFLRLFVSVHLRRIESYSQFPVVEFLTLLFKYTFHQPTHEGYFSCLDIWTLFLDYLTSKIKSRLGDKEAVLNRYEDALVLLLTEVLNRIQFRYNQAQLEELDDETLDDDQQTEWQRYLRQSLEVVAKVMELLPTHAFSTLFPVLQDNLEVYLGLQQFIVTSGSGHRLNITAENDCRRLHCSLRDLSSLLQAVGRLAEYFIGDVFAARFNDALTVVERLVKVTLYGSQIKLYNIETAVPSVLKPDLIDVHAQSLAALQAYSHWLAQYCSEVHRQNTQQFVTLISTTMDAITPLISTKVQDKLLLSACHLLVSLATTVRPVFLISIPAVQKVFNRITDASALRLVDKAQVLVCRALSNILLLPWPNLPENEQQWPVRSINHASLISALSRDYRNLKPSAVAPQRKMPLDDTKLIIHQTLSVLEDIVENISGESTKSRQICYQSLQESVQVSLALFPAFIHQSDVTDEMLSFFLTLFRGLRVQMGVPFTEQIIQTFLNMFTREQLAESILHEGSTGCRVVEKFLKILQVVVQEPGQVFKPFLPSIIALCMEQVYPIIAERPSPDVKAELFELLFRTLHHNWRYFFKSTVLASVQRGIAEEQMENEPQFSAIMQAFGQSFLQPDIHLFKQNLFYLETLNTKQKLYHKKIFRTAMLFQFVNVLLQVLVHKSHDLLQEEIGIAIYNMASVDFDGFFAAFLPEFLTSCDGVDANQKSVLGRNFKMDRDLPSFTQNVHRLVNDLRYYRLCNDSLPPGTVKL
UniProt Q9NYG2: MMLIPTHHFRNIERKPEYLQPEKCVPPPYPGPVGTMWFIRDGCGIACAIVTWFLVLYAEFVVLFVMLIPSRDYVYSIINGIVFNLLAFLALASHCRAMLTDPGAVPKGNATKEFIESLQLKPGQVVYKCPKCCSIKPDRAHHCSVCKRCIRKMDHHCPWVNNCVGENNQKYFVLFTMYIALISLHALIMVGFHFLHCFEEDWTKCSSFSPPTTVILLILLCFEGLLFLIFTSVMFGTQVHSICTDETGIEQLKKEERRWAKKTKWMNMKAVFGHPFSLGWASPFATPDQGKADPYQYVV
UniProt Q8IX07: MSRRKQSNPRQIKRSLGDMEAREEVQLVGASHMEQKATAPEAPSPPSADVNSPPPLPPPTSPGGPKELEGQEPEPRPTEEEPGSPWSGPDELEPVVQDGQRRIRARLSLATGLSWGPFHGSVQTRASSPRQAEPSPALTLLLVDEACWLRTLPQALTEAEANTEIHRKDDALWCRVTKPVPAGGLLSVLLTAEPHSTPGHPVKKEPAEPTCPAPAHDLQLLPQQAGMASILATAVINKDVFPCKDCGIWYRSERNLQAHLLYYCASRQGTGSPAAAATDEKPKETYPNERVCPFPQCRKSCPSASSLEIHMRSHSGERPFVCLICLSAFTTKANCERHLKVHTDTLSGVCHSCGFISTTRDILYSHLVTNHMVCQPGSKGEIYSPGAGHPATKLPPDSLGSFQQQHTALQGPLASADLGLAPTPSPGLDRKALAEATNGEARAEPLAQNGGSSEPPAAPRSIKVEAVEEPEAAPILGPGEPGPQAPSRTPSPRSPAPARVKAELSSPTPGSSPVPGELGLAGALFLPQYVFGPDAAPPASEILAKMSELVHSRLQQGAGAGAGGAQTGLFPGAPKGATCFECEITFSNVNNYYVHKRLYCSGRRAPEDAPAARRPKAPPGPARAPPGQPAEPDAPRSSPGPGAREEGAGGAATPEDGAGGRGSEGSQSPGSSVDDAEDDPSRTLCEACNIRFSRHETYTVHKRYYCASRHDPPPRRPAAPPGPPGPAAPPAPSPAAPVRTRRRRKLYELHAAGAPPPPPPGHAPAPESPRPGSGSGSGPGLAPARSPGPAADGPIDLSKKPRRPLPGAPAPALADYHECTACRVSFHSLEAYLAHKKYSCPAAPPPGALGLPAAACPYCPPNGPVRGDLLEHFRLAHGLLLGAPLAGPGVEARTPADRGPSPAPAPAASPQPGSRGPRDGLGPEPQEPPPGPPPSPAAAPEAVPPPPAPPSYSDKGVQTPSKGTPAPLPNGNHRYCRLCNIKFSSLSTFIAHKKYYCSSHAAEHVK
UniProt Q8WV99: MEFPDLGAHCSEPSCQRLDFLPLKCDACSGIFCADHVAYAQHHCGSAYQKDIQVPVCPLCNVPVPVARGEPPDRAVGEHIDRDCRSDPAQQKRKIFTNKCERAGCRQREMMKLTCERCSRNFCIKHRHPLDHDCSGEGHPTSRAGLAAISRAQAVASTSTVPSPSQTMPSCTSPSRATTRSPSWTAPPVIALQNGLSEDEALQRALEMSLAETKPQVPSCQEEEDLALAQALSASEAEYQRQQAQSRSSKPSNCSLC
UniProt O14980, whole entry, looked up: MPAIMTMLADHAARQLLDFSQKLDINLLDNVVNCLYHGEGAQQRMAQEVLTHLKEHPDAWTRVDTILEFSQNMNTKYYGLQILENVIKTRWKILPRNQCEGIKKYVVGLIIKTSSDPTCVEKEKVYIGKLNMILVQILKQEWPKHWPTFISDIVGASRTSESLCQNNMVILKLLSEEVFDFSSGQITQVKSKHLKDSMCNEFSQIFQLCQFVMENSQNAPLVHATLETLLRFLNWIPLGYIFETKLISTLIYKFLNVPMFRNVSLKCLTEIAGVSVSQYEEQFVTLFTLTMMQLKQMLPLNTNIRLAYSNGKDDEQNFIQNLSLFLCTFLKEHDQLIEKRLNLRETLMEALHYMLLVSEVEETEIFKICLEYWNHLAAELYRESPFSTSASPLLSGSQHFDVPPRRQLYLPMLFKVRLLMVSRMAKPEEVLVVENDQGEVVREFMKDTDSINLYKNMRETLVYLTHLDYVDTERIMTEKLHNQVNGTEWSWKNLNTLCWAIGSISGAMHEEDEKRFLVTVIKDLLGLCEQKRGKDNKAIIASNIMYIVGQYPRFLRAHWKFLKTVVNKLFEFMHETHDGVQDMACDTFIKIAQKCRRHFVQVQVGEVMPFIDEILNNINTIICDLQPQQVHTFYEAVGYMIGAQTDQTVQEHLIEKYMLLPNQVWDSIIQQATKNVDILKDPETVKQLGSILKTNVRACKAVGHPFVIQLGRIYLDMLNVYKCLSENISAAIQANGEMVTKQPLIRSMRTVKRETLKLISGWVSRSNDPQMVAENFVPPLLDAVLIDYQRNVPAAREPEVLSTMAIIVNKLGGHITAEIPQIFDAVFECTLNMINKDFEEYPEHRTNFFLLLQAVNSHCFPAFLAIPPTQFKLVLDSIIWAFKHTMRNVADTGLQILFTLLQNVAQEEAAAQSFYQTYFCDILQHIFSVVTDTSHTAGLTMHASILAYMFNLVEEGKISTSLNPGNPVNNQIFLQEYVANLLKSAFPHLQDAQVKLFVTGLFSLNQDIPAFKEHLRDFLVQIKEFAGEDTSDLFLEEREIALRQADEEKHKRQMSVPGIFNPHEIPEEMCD
UniProt Q9Y2Z4: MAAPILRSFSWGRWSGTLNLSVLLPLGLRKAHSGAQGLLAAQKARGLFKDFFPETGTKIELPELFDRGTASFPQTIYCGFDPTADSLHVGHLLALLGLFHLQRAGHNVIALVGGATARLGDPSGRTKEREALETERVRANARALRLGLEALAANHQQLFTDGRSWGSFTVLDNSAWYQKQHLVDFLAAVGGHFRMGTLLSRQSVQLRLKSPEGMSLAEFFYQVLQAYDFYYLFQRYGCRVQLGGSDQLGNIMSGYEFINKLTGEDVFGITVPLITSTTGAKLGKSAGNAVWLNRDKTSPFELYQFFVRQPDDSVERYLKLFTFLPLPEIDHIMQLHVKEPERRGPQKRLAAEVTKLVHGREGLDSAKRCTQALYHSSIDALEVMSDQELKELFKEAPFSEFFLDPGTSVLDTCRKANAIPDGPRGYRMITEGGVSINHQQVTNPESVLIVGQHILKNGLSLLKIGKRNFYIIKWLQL
UniProt Q6NZY4: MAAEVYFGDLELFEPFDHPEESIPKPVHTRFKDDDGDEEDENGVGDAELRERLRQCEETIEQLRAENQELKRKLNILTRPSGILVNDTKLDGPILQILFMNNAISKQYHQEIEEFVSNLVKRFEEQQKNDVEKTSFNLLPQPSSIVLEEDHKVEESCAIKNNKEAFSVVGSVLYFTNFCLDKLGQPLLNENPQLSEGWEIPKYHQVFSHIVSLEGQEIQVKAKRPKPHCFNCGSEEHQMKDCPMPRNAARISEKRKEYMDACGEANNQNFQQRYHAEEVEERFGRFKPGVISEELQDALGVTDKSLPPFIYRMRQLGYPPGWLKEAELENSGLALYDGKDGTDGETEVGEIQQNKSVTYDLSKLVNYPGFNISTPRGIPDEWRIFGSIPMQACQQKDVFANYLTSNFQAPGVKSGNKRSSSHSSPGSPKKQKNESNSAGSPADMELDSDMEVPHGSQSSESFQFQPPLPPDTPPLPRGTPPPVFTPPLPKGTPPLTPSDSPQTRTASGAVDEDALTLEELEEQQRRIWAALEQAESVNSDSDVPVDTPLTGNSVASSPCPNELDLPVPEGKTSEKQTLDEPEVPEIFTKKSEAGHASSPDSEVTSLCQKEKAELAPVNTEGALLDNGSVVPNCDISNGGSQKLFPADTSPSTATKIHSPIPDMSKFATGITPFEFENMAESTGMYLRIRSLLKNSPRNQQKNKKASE
UniProt Q9UGR2: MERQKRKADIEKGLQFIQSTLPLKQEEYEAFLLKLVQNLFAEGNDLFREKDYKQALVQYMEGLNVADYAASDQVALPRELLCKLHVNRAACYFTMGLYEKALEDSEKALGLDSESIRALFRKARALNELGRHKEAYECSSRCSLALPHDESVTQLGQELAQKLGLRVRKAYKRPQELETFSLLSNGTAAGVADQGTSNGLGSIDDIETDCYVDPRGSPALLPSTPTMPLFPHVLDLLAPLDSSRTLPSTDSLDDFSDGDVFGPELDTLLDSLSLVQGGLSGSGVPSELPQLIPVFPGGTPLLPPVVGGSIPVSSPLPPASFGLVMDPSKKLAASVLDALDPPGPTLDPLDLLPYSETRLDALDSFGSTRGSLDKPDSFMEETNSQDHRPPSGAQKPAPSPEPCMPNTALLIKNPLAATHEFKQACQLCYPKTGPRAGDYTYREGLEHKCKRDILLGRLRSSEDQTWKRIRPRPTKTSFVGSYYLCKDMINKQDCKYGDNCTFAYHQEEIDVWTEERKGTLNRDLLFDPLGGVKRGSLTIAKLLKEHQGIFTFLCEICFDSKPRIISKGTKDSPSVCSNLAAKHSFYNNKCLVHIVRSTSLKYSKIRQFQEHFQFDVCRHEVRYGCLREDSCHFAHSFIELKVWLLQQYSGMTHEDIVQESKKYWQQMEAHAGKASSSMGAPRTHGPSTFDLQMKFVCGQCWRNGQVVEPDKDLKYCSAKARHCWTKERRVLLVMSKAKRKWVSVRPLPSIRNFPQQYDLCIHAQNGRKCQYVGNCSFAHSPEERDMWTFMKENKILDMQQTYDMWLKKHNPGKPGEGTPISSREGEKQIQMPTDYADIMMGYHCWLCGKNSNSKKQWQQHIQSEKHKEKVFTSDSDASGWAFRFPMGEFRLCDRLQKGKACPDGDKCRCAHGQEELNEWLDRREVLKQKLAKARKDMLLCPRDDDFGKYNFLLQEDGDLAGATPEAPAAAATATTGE
UniProt Q9BSR8: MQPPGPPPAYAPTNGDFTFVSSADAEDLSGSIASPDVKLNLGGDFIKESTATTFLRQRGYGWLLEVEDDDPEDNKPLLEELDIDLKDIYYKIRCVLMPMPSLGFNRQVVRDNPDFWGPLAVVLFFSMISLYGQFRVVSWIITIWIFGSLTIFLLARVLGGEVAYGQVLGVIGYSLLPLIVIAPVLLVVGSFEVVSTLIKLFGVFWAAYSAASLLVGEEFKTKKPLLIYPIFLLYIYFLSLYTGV

The list shows a part of the results.

Compound in one assay: Cn1cc(-c2ccc3c(c2)CCN3C(=O)Cc2cccc(C(F)(F)F)c2)c2c(N)ncnc21
Briefly: log2 fold change, soluble protein after heating vs DMSO (PISA); higher = thermal stabilisation; K562 lysate, 10 uM; active = over 0.2 and 3.5 SD of the protein, either way, in both replicates (recomputed). The method in brief:
(§1)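 Quantification was by TMTpro 16plex LC-MS/MS with equalised channel sums, applied to the supernatant after 21,000xg for 90 min. Samples were crude K562 extract at 1 mg/mL protein in PBS pH 7.4 with 1 mM MgCl2, treated with 10 μM compound for 30 min, heated for 3 min across 48°C-58°C, pooled and brought to 0.5% NP-40 at 4°C. Values are log-two fold changes in thermal stability relative to solvent controls, from duplicates.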
Turning to YBX3 (UniProt P16989), the log2 fold change was inactive: -0.036.
As for ZBED8 (UniProt Q8IZ13), the log2 fold change is inactive: 0.071.
For the target XPO7 (UniProt Q9UIA9), the log2 fold change is inactive: 0.003.
On the same count and under the same terms, in the case of YIPF3 (UniProt Q9GZM5) it was inactive: -0.04.
Consider XPO6 (UniProt Q96QU8), for which the log2 fold change was inactive: -0.026.
Still for that read-out and setting: in the case of ZDHHC3 isoform 2 (UniProt Q9NYG2) it was inactive: -0.009.
With ZFPM1 (UniProt Q8IX07), the log2 fold change is inactive: 0.095.
For YES1 (UniProt P07947), the log2 fold change is inactive: -0.087.
On the same count and under the same terms, in the case of ZFAND2B (UniProt Q8WV99) it was inactive: -0.001; in that of XPO1 (UniProt O14980), inactive: 0.021; in that of ZCCHC3 (UniProt Q9NUD5), inactive: -0.021.
Turning to YIPF5 isoform 3 (UniProt Q969M3), the log2 fold change was inactive: -0.034.
In the case of ZC3H18 (UniProt E7ERS3), the log2 fold change was inactive: 0.006.
With YBX3 isoform 2 (UniProt P16989), the log2 fold change is inactive: 0.051.
As for ZC3H4 (UniProt Q9UPT8), the log2 fold change was inactive: -0.007.
Regarding YJU2 (UniProt Q9BW85), the log2 fold change was inactive: 0.027.
Same read-out and setting: under ZC3H15 (UniProt Q8WU90) stands inactive: -0.013; under YIPF6 (UniProt Q96EC8), inactive: 0.039; under XRCC1 (UniProt P18887), inactive: 0.037.
With ZFR (UniProt Q96KR1), the log2 fold change is inactive: 0.052.
With YME1L1 (UniProt Q96TA2), the log2 fold change was inactive: -0.044.
On the same count and under the same terms, under YTHDC2 (UniProt Q9H6S0) stands inactive: 0.03.
ZFAND6 (UniProt Q6FIF0): the log2 fold change was inactive: -0.047.
ZER1 (UniProt Q7Z7L7): the log2 fold change was inactive: 0.004.
With XPNPEP3 (UniProt Q9NQH7), the log2 fold change was inactive: -0.029.
For ZBED1 (UniProt O96006), the log2 fold change was inactive: 0.025.
XPOT (UniProt O43592): the log2 fold change is inactive: -0.004.
With YRDC (UniProt Q86U90), the log2 fold change was inactive: -0.019.
On to YY1 (UniProt P25490), for which the log2 fold change was inactive: -0.018.
In the case of ZGPAT (UniProt Q8N5A5), the log2 fold change is inactive: 0.035.
As to XRCC6 (UniProt P12956), the log2 fold change is inactive: 0.014.
Consider YKT6 (UniProt O15498), for which the log2 fold change was inactive: -0.002.
For the target YARS2 (UniProt Q9Y2Z4), the log2 fold change was inactive: -0.002.
ZC3H8 (UniProt Q8N5P1): the log2 fold change was inactive: 0.034.
Turning to ZCCHC8 (UniProt Q6NZY4), the log2 fold change is inactive: -0.007.
In the case of YLPM1 (UniProt P49750), the log2 fold change was inactive: 0.021.
Turning to ZC3H7B (UniProt Q9UGR2), the log2 fold change is inactive: 0.055.
Take YIPF4 (UniProt Q9BSR8): the log2 fold change is inactive: 0.044.
Take YDJC (UniProt A8MPS7): the log2 fold change was inactive: -0.02.
With ZBTB21 (UniProt Q9ULJ3), the log2 fold change was inactive: -0.016.

Compound in another assay: Cn1cc(CNCC2CCN(c3ncc(C(=O)NO)cn3)CC2)c2ccccc21 [quisinostat]
The assay is described as above. The method in brief: as §1
In the case of YBX3 (UniProt P16989), the log2 fold change is inactive: -0.023.
As for ZBED8 (UniProt Q8IZ13), the log2 fold change was inactive: 0.006.
Still for that read-out and setting: in the case of XPO7 (UniProt Q9UIA9) it was inactive: -0.019; in that of YIPF3 (UniProt Q9GZM5), inactive: 0.036; in that of XPO6 (UniProt Q96QU8), inactive: -0.123.
With ZDHHC3 isoform 2 (UniProt Q9NYG2), the log2 fold change was inactive: -0.186.
As to ZFPM1 (UniProt Q8IX07), the log2 fold change was inactive: -0.189.
For YES1 (UniProt P07947), the log2 fold change was inactive: -0.084.
In the case of ZFAND2B (UniProt Q8WV99), the log2 fold change is inactive: 0.011.
Still for that read-out and setting: under XPO1 (UniProt O14980) stands inactive: -0.007.
Same read-out and setting: in the case of ZCCHC3 (UniProt Q9NUD5) it was inactive: -0.008; in that of YIPF5 isoform 3 (UniProt Q969M3), inactive: 0.072; in that of ZC3H18 (UniProt E7ERS3), inactive: -0.093.
Still for that read-out and setting: in the case of YBX3 isoform 2 (UniProt P16989) it was inactive: -0.047.
Take ZC3H4 (UniProt Q9UPT8): the log2 fold change is inactive: -0.057.
Regarding YJU2 (UniProt Q9BW85), the log2 fold change was inactive: 0.005.
Still for that read-out and setting: in the case of ZC3H15 (UniProt Q8WU90) it was inactive: -0.011; in that of YIPF6 (UniProt Q96EC8), inactive: 0.151; in that of XRCC1 (UniProt P18887), inactive: -0.019.
For ZFR (UniProt Q96KR1), the log2 fold change is inactive: 0.011.
As for YME1L1 (UniProt Q96TA2), the log2 fold change was inactive: -0.045.
YTHDC2 (UniProt Q9H6S0): the log2 fold change is inactive: -0.046.
For ZFAND6 (UniProt Q6FIF0), the log2 fold change was inactive: -0.013.
As for ZER1 (UniProt Q7Z7L7), the log2 fold change was inactive: -0.166.
On the same count and under the same terms, in the case of XPNPEP3 (UniProt Q9NQH7) it was inactive: 0.182; in that of ZBED1 (UniProt O96006), inactive: 0.026.
As for XPOT (UniProt O43592), the log2 fold change was inactive: -0.056.
Take YRDC (UniProt Q86U90): the log2 fold change was inactive: -0.019.
Still for that read-out and setting: in the case of YY1 (UniProt P25490) it was inactive: 0.109; in that of ZGPAT (UniProt Q8N5A5), inactive: -0.035; in that of XRCC6 (UniProt P12956), inactive: 0.03.
In the case of YKT6 (UniProt O15498), the log2 fold change is inactive: 0.015.
As to YARS2 (UniProt Q9Y2Z4), the log2 fold change was inactive: -0.012.
Take ZC3H8 (UniProt Q8N5P1): the log2 fold change is inactive: -0.006.
Regarding ZCCHC8 (UniProt Q6NZY4), the log2 fold change was inactive: -0.025.
YLPM1 (UniProt P49750): the log2 fold change was inactive: -0.015.
In the case of ZC3H7B (UniProt Q9UGR2), the log2 fold change was inactive: -0.028.
Take YIPF4 (UniProt Q9BSR8): the log2 fold change is inactive: 0.011.
Still for that read-out and setting: in the case of YDJC (UniProt A8MPS7) it was inactive: -0.03; in that of ZBTB21 (UniProt Q9ULJ3), inactive: 0.09.
